Data on 4 substances can be found in paper PMC11742450, “Engineering a membrane protein chaperone to ameliorate the proteotoxicity of mutant huntingtin” (Nature Communications, 2025).

Assay [1] addresses T1, His6-hsPEX19-FV (M255F/Q259V) (human) (UniProt P40855).
T1 sequence: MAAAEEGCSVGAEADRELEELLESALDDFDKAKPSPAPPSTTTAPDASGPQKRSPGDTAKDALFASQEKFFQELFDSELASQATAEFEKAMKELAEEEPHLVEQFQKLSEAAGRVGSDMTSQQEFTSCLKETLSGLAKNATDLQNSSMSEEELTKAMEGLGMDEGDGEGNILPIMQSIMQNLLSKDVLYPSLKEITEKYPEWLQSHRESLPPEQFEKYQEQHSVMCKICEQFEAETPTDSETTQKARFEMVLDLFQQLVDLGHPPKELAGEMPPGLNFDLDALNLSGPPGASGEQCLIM
As to the kind of experiment: condition: 250 nM (highest concentration of the series); BLI; His-hsPEX19-FV immobilised on a Ni-NTA biosensor; GST-Httex1-51Q proteins 250 nM to 15.6 nM; 30 °C; 20 mM HEPES (pH 7.5), 150 mM KoAc; association 300 s, dissociation 600 s; 1:1 binding model; both purified.

The target in assay [2] is T1, His6-hsPEX19-FV (M255F/Q259V) (human). The assay can be described thus: BLI; His-hsPEX19-FV immobilised on a Ni-NTA biosensor; GST-Httex1-51Q proteins 250 nM to 15.6 nM; 30 °C; 20 mM HEPES (pH 7.5), 150 mM KoAc; association 300 s, dissociation 600 s; 1:1 binding model; both purified. In general terms: In BLI a coated tip is dipped into the sample, and binding shifts an interference pattern.

Assay [3] addresses T2, His6-hsPEX19-FI^Bpa (human) (UniProt P40855).
T2 sequence (chain, p-benzoyl-L-phenylalanine (Bpa) in place of residue F255): T1 sequence with V259I
As to the kind of experiment: cross-linking; Bpa photo-cross-linking, Bpa in hsPEX19 (F255 or M179); 3 μM hsPEX19^Bpa with equimolar Httex1-51Q-WT or -ΔN, 3 h at 30 °C in TEV reaction buffer with AcTEV protease; UV on dry ice 10 min; Western blot with PEX19 and S-tag antibodies; both purified.

Assay [4] has as its target T3, His6-hsPEX19-FV^Bpa (human) (UniProt P40855).
T3 sequence (chain, p-benzoyl-L-phenylalanine (Bpa) in place of residue F255): T1 sequence
Described as above.

Changes are numbered by the printed parent chain. No constants are given. Whether binding was seen depends on the method and setting. For part of these data: Binding can be weak; no strength is given. Sequences can lack the tags named with a protein.

Regarding GST-Httex1-51Q-ΔN (domain or fragment), the binding result in assay [1] was “no binding”.

Take GST-Httex1-51Q-WT (domain or fragment): in assay [2], the binding entry is on record as “binds”. For the substance “Httex1-51Q-WT (after TEV cleavage of GST) (domain or fragment)”, the binding result in assay [3] and in assay [4] was “binds” in each case. On to “Httex1-51Q-ΔN (after TEV cleavage of GST) (domain or fragment)”, for which the binding result in assay [3] and in assay [4] was “no binding (tested: 3 μM each)” each time.
